From patent EP4737479A1
Results are given in words; binding and its absence hold for the method and conditions named. Some results given as binding are weak or reduced against the parent protein; the word gives no strength.

Protein sequences, listed by entry. Tags and fused reporters are not part of them. Residues count along the entry.
UniProt Q07011, residues 24-186: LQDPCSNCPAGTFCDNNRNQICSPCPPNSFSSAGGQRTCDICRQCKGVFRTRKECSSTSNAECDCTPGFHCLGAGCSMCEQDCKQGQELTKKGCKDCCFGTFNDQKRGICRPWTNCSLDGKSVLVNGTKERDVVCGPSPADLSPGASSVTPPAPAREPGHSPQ

B1: VHH1 (VHH)
VHH: EVQLVESGGGLVQPGGSLRLSCAASGFTFSSYAMGWVRQAPGKGREFVSAISGNGGSTYYADSVKGRFTISRDNSKNTLYLQMNSLRAEDTAVYYCAAGYSYLYPGGLSTRPSFYDYWGQGTQVTVSS
B2: VHH2 (VHH)
VHH: EVQLVESGGGLVQPGGSLRLSCAASGFTFSSYAMGWVRQAPGKGREFVSAISGNGGSTYYADSVKGRFTISRDNSKNTLYLQMNSLRAEDTAVYYCAAGDAYVYPYGVSTDPSFYDYWGQGTQVTVSS
B3: VHH6 (VHH)
VHH: EVQLVESGGGLVQPGGSLRLSCAASGFTFSSYAMGWVRQAPGKGREFVSAISGSGGSTYYADSVKGRFTISRDNSKNTLYLQMNSLRAEDTAVYYCAAGYSYLYPGGLSTRPSFYDYWGQGTQVTVSS
B4: VHH8 (VHH)
VHH: EVQLVESGGGLVQPGGSLRLSCAASGFTFSSYAMGWVRQAPGKGREFVSAISGNGGSTFYADSVKGRFTISRDNSKNTLYLQMNSLRAEDTAVYYCAAGYSYLYPGGLSTRPSFYDYWGQGTQVTVSS
B5: VHH13 (VHH)
VHH: EVQLVESGGGLVQPGGSLRLSCAASGFTFSSYAMGWVRQAPGKGREFVSAISGYGGTTYYADSVKGRFTISRDNSKNTLYLQMNSLRAEDTAVYYCAAGTGYYSRVGVSTDPSFYDYWGQGTQVTVSS
B6: VHH15-1 (VHH)
VHH: EVQLVESGGGLVQPGGSLRLSCAASGFTFSSYAMGWVRQAPGKGREFVSAISGNGGSTYYADSVKGRFTISRDNSKNTLYLQMNSLRAEDTAVYYCAAGYSYLSPGGVSTRPSFYDYWGQGTQVTVSS
B7: VHH16 (VHH)
VHH: EVQLVESGGGLVQPGGSLRLSCAASGFTFSSYAMGWVRQAPGKGREFVSAISGSGGTTYYADSVKGRFTISRDNSKNTLYLQMNSLRAEDTAVYYCAAGTGYYSRVGVSTDPSFYDYWGQGTQVTVSS
B8: VHH15 (VHH)
VHH: EVQLVESGGGLVQPGGSLRLSCAASGFTFSSYAMGWVRQAPGKGREFVSAISGYGGSTYYADSVKGRFTISRDNSKNTLYLQMNSLRAEDTAVYYCAAGSGLYSSYGVSTDPSFYDYWGQGTQVTVSS

Target: human 4-1BB antigen (human) (UniProt Q07011)
Test: ELISA screen of phage display clones

binding, binds:
B1
B2
B3
B4
B5
B6
B7
B8
